Hit rate of the full screen: of about 390,000 compounds, about 760 (0.19%) were called active. Inconclusive means that the source gave no clear call. Such entries were picked first, then a sample of the others. The call rests on the fitted dose curve; in most records, active means well fitted inhibition curve with a large enough effect; inconclusive means small, poorly fitted or top-dose-only effect; inactive means flat fitted curve, though single readings scatter. Where the call is inconclusive, the potency comes from a doubtful curve fit.
assay: qHTS for Inhibitors of Vif-A3F Interactions: qHTS; conditions: HeLa A3F-eYFP + Vif (tagged APOBEC3F with the HIV-1 protein that degrades it), YFP fluorescence increase; series mostly up to 46.1 µM; activity, negative = active: at the top concentration; further: nearly all actives have a fitted effect of over 65% in size; on activity, negative = active: % of control where 0% means no effect
Outline: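 Fluorescence increase (Ex 488/Em 500-530) after overnight compound treatment at 37 deg C flags inhibition of Vif-driven A3F-eYFP loss in stable HeLa A3F-eYFP/Vif cells seeded overnight beforehand.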
Potency means the concentration at half of the fitted maximal effect.

| Compound | Potency | activity, negative = active |
| --- | --- | --- |
| CC1=CC(C)(C)n2c(O)c(N=N)c3c(C)ccc1c32 | inconclusive: 2.82 µM [inhibitor, partial curve, poor fit] | – |
| COc1ccc(CCn2c(-c3ccco3)nc3nc4ccccc4nc32)cc1 | inconclusive: 35.5 µM [inhibitor, single point] | – |
| Cc1ccc(NC(=O)CN2C(=O)S/C(=C/c3ccc(-c4cccc(C(=O)O)c4)o3)C2=O)cc1 | inconclusive: 20 µM [inhibitor, partial curve, poor fit] | – |
| c1ccc(CN2CCC(Nc3nc(-c4cccnc4)nc4ccccc34)CC2)cc1 | inconclusive: 35.5 µM [inhibitor, single point] | – |
| Cn1c(=O)c(/C=C/c2ccc(F)cc2)nc2ccccc21 | inconclusive: 17.8 µM [inhibitor, single point] | – |
| CC(=O)Nc1ccc(SCCN2CC[C@@H](C(C)(C)C)CCC2=O)cc1 | – | inactive: -8.02% |
| O=C(CN1CCCC1)Nc1ccc(-c2nc3cc(NC(=O)CN4CCCC4)ccc3o2)cc1 | – | inactive: -1.49% |
| CC(C)c1ccc(Nc2c(-c3ccccn3)nc3ccccn23)cc1 | inconclusive: 35.5 µM [inhibitor, single point] | – |
| CCN(CC)S(=O)(=O)c1ccc(N2CCOCC2)c(NC(=O)c2ccco2)c1 | inconclusive: 11.2 µM [inhibitor, partial curve, poor fit] | – |
| c1csc(C(c2nnnn2C2CCCCC2)N2CCN(c3nc4ccccc4s3)CC2)c1 (stereo not given) | inconclusive: 25.1 µM [inhibitor, single point] | – |
| CN1C(=S)N(c2cccnc2)C(=O)/C1=C\c1ccc(N(C)C)cc1 | inconclusive: 2.82 µM [inhibitor, partial curve, poor fit] | – |
| Cc1ccc(-c2nc3ncccc3o2)cc1NC(=O)c1sc2ccccc2c1Cl | inconclusive: 6.31 µM [inhibitor, single point] | – |
| CC1CCCN(C(=O)C2CCN(S(=O)(=O)c3ccc4c(c3)CC(C)N4C(=O)C3CC3)CC2)C1 (stereo not given) | inconclusive: 10 µM [inhibitor, partial curve, poor fit] | – |
| FC(F)(F)c1cccc(Nc2c3c(nc4ccc(Cl)cc24)CCC3)c1 | inconclusive: 22.4 µM [inhibitor, single point] | – |
| Cc1cccn2cc(COc3ccc(-c4ccccc4)cc3)nc12 | inconclusive: 25.1 µM [inhibitor, single point] | – |
| Cc1ccc(CCNC(=O)c2ccc(Nc3nc4ccccc4n4nnnc34)cc2)cc1 | inconclusive: 11.2 µM [inhibitor, partial curve, poor fit] | – |
| CCCN1C(=O)S/C(=C\c2ccc(N3CCOCC3)o2)C1=O | inconclusive: 3.98 µM [inhibitor, partial curve, poor fit] | – |
| Cc1ccccc1OCC(=O)Nc1ccccc1OCc1cc(=O)n2ccccc2n1 | inconclusive: 35.5 µM [inhibitor, single point] | – |
| O=C(NC(=S)N1CCN(c2ccc(C(F)(F)F)cc2[N+](=O)[O-])CC1)c1cccs1 | inconclusive: 3.55 µM [inhibitor, single point] | – |
| Nc1ccccc1SC(CC(=O)c1ccccc1)c1ccccc1 (stereo not given) | inconclusive: 2.82 µM [inhibitor, single point] | – |
| COc1cccc(NC(=O)CC2Nc3cc(C)c(C)cc3NC2=O)c1 (stereo not given) | inconclusive: 22.4 µM [inhibitor, single point] | – |
| CN1C(=O)C(N=Nc2ccc([N+](=O)[O-])cc2)SC1=S (stereo not given) | – | inactive: 0.938% |

Whole records from above.
O=C(CN1CCCC1)Nc1ccc(-c2nc3cc(NC(=O)CN4CCCC4)ccc3o2)cc1 is listed as activity, negative = active: inactive: -1.49%
Cc1cccn2cc(COc3ccc(-c4ccccc4)cc3)nc12 is listed as Potency: inconclusive: 25.1 µM [inhibitor, single point]
CCN(CC)S(=O)(=O)c1ccc(N2CCOCC2)c(NC(=O)c2ccco2)c1 is listed as Potency: inconclusive: 11.2 µM [inhibitor, partial curve, poor fit]
CC1CCCN(C(=O)C2CCN(S(=O)(=O)c3ccc4c(c3)CC(C)N4C(=O)C3CC3)CC2)C1 (stereo not given) is listed as Potency: inconclusive: 10 µM [inhibitor, partial curve, poor fit]

Following part:

| Compound | Potency | activity, negative = active |
| --- | --- | --- |
| CCCOc1cccc(C(=O)Nc2cc(-c3ccccc3)no2)c1 | inconclusive: 11.2 µM [inhibitor, partial curve, poor fit] | – |
| O=c1cc(N2CCCCC2)c(-c2ccccc2)nn1Cc1cccc(F)c1 | inconclusive: 35.5 µM [inhibitor, single point] | – |
| O=C1C(=O)N(Cc2ccccc2)C(c2cccc(O)c2)/C1=C(\O)c1ccc2c(c1)OCCO2 (stereo not given) | inconclusive: 35.5 µM [inhibitor, single point] | – |
| CCOC(=O)C(=Cc1ccc(-c2ccsc2C(=O)OC)o1)C(=O)OCC | – | inactive: -15.1% |
| Cn1c(-c2sc(=S)n(-c3ccccc3)c2N)nc2ccccc21 | inconclusive: 14.1 µM [inhibitor, single point] | – |
| O=c1nc2c(O)cccn2c2c1c(=O)[nH]c1ccccc12 | inconclusive: 20 µM [inhibitor, partial curve, poor fit] | – |
| CCOC(=O)c1sc(-c2cccs2)nc1C | inconclusive: 35.5 µM [inhibitor, single point] | – |
| CCn1nc(NC(=O)C(C)(C)C)c2cc3cccc(C)c3nc21 | – | inactive: 9.6% |
| Cc1ccccc1/C=N\NC(=O)c1csnn1 | inconclusive: 35.5 µM [inhibitor, single point] | – |
| COc1ccccc1Cn1c(=S)[nH]c2ccccc2c1=O | inconclusive: 35.5 µM [inhibitor, single point] | – |
| O=C(NC(=S)Nc1ccccc1O)c1cccnc1 | inconclusive: 35.5 µM [inhibitor, single point] | – |
| COc1ccc(NC(=O)c2ccc([N+](=O)[O-])o2)cc1 | inconclusive: 3.16 µM [inhibitor, single point] | – |
| Cc1ccc(C(=O)c2oc3ccccc3c2NC(=O)c2cc(-c3ccccc3O)n[nH]2)cc1 | inconclusive: 35.5 µM [inhibitor, single point] | – |
| C=C1c2cccc(O)c2C(=O)C2C(=O)[C@]3(O)C(=O)C(C(N)=O)C(=O)[C@@H](N(C)C)[C@@H]3[C@@H](O)[C@H]12 (stereo not given in full) | – | inactive: -2.12% |
| Oc1ccccc1-c1nc(NCc2cccnc2)c2ccccc2n1 | inconclusive: 35.5 µM [inhibitor, single point] | – |
| O=C(COC(=O)c1cn(-c2ccccc2)nc1-c1ccc(F)cc1)Nc1ncc(Cl)cc1Cl | inconclusive: 15.8 µM [inhibitor, single point] | – |
| Cc1ccc(/C=C2\SC(=S)N(CCC(=O)Nc3cccnc3)C2=O)cc1 | inconclusive: 2.82 µM [inhibitor, full curve, poor fit] | – |
| Cc1ccc(N(CC(=O)NC2CCCCC2)S(=O)(=O)c2c(C)noc2C)cc1 | inconclusive: 2 µM [inhibitor, partial curve, poor fit] | – |
| Cc1ccc(N(CC(N)=O)C2SC(=O)N(Cc3ccccc3)C2=O)cc1 (stereo not given) | – | inactive: 3.67% |
| CC(C)(C)NNC(=S)Nc1cccc(F)c1 | inconclusive: 3.16 µM [inhibitor, single point] | – |
| Cc1ccc(-n2c(-c3ccc(Cl)cc3Cl)n[nH]c2=S)cc1 | inconclusive: 0.562 µM [inhibitor, partial curve, poor fit] | – |
| C=C(C)C1CCC(C)=C1COC(=O)Nc1ccccc1 (stereo not given) | – | inactive: -7.1% |

| Compound | Potency | activity, negative = active |
| --- | --- | --- |
| Cc1ccc(C(=O)C2CCN(CC(=O)Nc3ccccc3C)CC2)cc1 | inconclusive: 35.5 µM [inhibitor, partial curve, poor fit] | – |
| O=C1N/C(=N\N=C\c2ccco2)SC1Cc1ccccc1[N+](=O)[O-] (stereo not given) | inconclusive: 3.98 µM [inhibitor, full curve] | – |
| CN1\C(=C/C=C/C=C/C=[N+](C)C)C(C)(C)c2ccccc21 | inconclusive: 11.2 µM [inhibitor, partial curve, poor fit] | – |
| Cc1nn(CC(=O)NCCc2cccs2)c(=O)c2nn(-c3ccccc3)c(C)c12 | inconclusive: 15.8 µM [inhibitor, partial curve, poor fit] | – |
| Cc1sc(-c2cc3c([nH]c2=O)CC(c2ccccc2)CC3=O)nc1-c1ccc(Cl)cc1 (stereo not given) | active: 12.6 µM | – |
| Cc1ccc2oc(=O)n(Cc3ccccc3OC(C)C)c2c1 | – | inactive: -0.11% |
| COc1ccc(OC)c(/C=C2\N=C(c3ccccc3)OC2=O)c1 | – | inactive: -5.29% |
| COc1ccc(C)cc1S(=O)(=O)Nc1ccncc1 | inconclusive: 6.31 µM [inhibitor, single point] | – |
| COc1ccccc1C(=O)NCCC(=O)N(C)CC(=O)Nc1ccc(C)cc1 | inconclusive: 11.2 µM [inhibitor, single point] | – |
| Cc1ccc(OCC(=O)N(Cc2ccccc2)c2c(N)n(Cc3ccccc3)c(=O)[nH]c2=O)c(C)c1 | inconclusive: 25.1 µM [inhibitor, single point] | – |
| COC(=O)c1ccccc1NC(=O)c1cccc(COc2ccccc2Cl)c1 | inconclusive: 20 µM [inhibitor, single point] | – |
| Cc1ccc(Cl)cc1N(CC(=O)NC(C)c1ccccc1)S(C)(=O)=O (stereo not given) | inconclusive: 22.4 µM [inhibitor, single point] | – |
| Cc1ccc(-c2ccccc2NC(=O)CS(=O)CC(=O)Nc2ccc(C)c(Cl)c2)o1 (stereo not given) | inconclusive: 35.5 µM [inhibitor, single point] | – |
| CCS(=O)(=O)c1nc(S(=O)(=O)c2ccc(Cl)cc2)c(N2CCC(C(N)=O)CC2)s1 | inconclusive: 15.8 µM [inhibitor, single point] | – |
| COc1ccc(NC(=O)CSc2nc3ccccc3nc2N2CCCC2)cc1Cl | – | inactive: 0.507% |
| CC12CCC(C(=O)O)(c3nc4cc([N+](=O)[O-])ccc4nc31)C2(C)C (stereo not given) | – | inactive: 2.38% |
| O=C(NC(=S)N1CCN(c2ccccn2)CC1)c1ccccc1 | active: 22.4 µM | – |
| Cc1ccc(NC(=O)c2nnn(-c3cccc(C(F)(F)F)c3)c2N)cc1 | – | inactive: 5.59% |
| C/C(=N\NC(=S)Nc1ccccc1C)C1Cc2ccccc2C(=O)O1 (stereo not given) | inconclusive: 5.62 µM [inhibitor, single point] | – |
| Cc1cc(C)nc(N2CCCC(C(=O)NC3CC3)C2)n1 (stereo not given) | inconclusive: 35.5 µM [inhibitor, single point] | – |
| CC(C)COc1ccc(C(=O)OCCN2CCCCC2)cc1 | – | inactive: -20.8% |

Source: PubChem BioAssay AID602313 (National Center for Advancing Translational Sciences (NCATS), 2012)
